Test results from US20220033507A1.
No constants are given. Whether binding was seen depends on the method and setting. Some results given as binding are weak or reduced against the parent protein; the word gives no strength. For some assays here: Where a sequence is shown, tags or fusion partners need not be part of it.

T1: NLRP3 peptide FUS_746_001 (free, unconjugated)
T1 sequence (peptide): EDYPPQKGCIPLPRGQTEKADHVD


Tests used:
[1] = target: T1, NLRP3 peptide FUS_746_001 (free, unconjugated); test: ELISA of hybridoma supernatants on coated NLRP3 peptide, APO-A1 as negative control
IL-1R1 Fc fusion protein = test: ELISA of hybridoma supernatants on coated IL-1R1, APO-A1 as negative control

Row | binding [1] | binding (IL-1R1 Fc fusion protein) | Binder
1 | binds |  | Anti-NLRP3 monoclonal antibody produced from clone F226 7A7-1E1-2D5 (antibody, V domains shown) VH: EVQLVESGGGLVKPGGSLKLSCAASGFTFSDYYMYWVRQTPEKRLEWVATISDGGTYTYYPDSVKGRFTISRDNAKNNLYLQMNSLKSEDTAMYYCARGWVSTMVKLLSSFPYWGQGTLVTVSA VL: QAVVTQESALTTSPGETVTLTCRSSTGAVTTSNYANWVQEKPDHLFTGLIGGTNNRAPGVPARFSGSLIGDKAALTITGAQTEDEAIYFCALWYSNYWVFGGGTKLTVLG
2 |  | binds | Anti-IL-1R1 monoclonal antibody produced from clone F237 5D1-1A8-2A5 (antibody, V domains shown) VH: QIQLVQSGPELRKPGETVRISCKASGYPFTTAGLQWVQKMSGKGLKWIGWMNTQSEVPKYAEEFKGRIAFSLETAASTAYLQINNLKTEDTATYFCAKSVYFNWRYFDVWGAGTTVTVSS VL: DIVMTQSPATLSVTPGDRVSLSCRASQSISDYLSWYQQRSHESPRLIIKYASQSISGIPSRFSGSGSGSDFTLSINSVEPEDVGVYYCQHGHSFPLTFGSGTKLELKR
